Our source for the binding values is paper PMC4123912.

Chains of the proteins cited; added tags and fusions are not shown. Lines headed by an entry give the natural chain unless they say otherwise; changes in a name come on top.
UniProt Q99836: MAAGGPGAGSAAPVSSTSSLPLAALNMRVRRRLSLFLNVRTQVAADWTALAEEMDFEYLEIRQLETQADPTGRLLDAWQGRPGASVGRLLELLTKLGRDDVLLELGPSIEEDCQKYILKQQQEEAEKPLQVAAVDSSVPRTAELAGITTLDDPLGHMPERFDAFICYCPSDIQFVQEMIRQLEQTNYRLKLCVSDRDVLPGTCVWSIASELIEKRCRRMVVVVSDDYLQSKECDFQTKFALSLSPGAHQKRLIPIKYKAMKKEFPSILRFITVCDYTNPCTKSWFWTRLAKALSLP
UniProt Q92985: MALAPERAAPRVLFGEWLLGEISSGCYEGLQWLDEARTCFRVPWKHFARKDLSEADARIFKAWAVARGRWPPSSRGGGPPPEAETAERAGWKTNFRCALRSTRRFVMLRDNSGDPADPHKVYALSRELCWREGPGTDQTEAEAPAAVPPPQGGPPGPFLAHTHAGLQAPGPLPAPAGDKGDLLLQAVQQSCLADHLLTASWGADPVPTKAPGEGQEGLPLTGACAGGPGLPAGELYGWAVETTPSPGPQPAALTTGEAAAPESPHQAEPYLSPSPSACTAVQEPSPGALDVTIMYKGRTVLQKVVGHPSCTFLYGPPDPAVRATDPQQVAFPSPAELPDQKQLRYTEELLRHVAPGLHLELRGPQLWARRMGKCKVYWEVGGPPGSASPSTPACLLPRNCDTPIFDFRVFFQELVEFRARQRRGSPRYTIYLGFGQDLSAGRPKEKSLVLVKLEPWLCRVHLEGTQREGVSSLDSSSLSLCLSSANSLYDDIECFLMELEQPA

For assay [1], the target named is FLAG-tagged human MyD88 (human) (UniProt Q99836). Put plainly: co-IP; HEK293T cells co-transfected with FLAG-MyD88 and GFP-IRF7 (human or bat), lysed 24 h later (50 mM Tris pH 7.4, 1.0% Triton X-100, 150 mM NaCl, 1 mM EDTA); FLAG-MyD88 precipitated with anti-FLAG M2-agarose, 2 h at 4°C; blot with anti-human IRF7 antibody.
Assay [2] deals with FLAG-tagged bat (Pteropus alecto) MyD88 (Pteropus alecto). The assay is described as above.

Results are given in words; binding and its absence hold for the method and conditions named. Binding seen in cells or lysates may run through a third protein. Binding can be weak; no strength is given. For some assays here: Where a sequence is shown, tags or fusion partners need not be part of it.

As to “GFP-tagged human IRF7 (from UniProt Q92985)”, the binding entry in assay [1] is “binds”.

B1: GFP-tagged bat (Pteropus alecto) IRF7 (protein, UniProt A0A076YII5 1-503)
chain: MAAARDRGAPRVLFADWLLGEVSSGRYEGLRWLDEARTRFRVPWKHFSRKNLGEADSLIFKAWAIARGRWPLSSGPGNPPIRESALRAGWKTNFRCALRSTQRFVMLHDNSADPADPHKVYELSSEPPWRESPGINQGEHKALEDASSWRGGLPRPHLVDAGERLGPAPSAPSPGLAGSTGDLLLQALQQSHLEDHLLDGAQEVDPVPLEAPGPELPAEQPYLPWAMEVAASPRSQPQAAMTDAGPAPEPWQPLQETEPSTQVVGPSHPQPSLHVESGLGTLDVTIMYKGRTVLQEVVGRPRCVLLYGPPGLASEAREPQEPQMVAFPSPAEPPDQKQLHYTEKLLQHVAPGLQLELRGPGLWARRLGKCKVYWEVGGPLGSDNPSTPARLLQRNCDTPIFDFGTFFRELVEFRTRQRRGSPHYTIYLGFGQDLSAGRSKDRSLVLVKLEPWLCRAYLESVQREGVSSLDSSSFSSALSSSNSLYEDLEHFLEHFLMEVEQPA
Turning to B1, the binding result in assay [2] is “binds”.
